For one substance, binding results are on record in article PMC9631078.

By UniProt entry, the sequences of proteins in these tests, tags left out.
UniProt P46937: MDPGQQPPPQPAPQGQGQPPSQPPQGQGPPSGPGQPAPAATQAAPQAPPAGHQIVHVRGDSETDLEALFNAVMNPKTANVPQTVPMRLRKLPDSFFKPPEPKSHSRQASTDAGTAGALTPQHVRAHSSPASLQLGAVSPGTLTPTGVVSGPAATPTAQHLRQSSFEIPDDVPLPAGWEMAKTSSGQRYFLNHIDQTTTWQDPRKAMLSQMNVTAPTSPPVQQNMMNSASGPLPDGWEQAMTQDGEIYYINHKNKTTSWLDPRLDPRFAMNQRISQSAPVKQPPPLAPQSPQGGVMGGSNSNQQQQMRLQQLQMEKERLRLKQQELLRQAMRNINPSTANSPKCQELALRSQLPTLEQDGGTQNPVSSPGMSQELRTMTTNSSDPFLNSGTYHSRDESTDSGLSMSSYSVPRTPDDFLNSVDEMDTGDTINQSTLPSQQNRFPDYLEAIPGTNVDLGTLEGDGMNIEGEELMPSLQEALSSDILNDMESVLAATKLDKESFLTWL

This experiment has as its target T1, Flag-tagged BNIP-2 (full length human BNIP-2, pXJ40), overexpressed in HEK293T cells (human) (UniProt Q12982).
T1 sequence: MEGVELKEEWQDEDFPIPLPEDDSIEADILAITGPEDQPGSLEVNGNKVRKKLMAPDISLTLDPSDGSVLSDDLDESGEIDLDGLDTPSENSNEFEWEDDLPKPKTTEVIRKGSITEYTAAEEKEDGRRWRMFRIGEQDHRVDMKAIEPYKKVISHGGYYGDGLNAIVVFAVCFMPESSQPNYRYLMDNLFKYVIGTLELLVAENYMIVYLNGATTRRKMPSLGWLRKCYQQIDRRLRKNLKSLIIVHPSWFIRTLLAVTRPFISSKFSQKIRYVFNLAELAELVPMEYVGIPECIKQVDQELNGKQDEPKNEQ
Nature of the experiment: co-IP; pull-down of BNIP-2 in the overexpression system (Figure S4D); details not shown.

These are yes or no findings as the source states them, for the method shown. In cells and extracts the contact can be indirect. Some results given as binding are weak or reduced against the parent protein; the word gives no strength. Sequences can lack the tags named with a protein.

Regarding “YAP (LATS1 substrate), found in the pull-down of BNIP-2 in the overexpression system (from UniProt P46937 1-504)”, the binding entry is “binds”.
